In patent publication US20250325534A1, “MICROBIOCIDAL TETRAHYDROISOQUINOLINE DERIVATIVES” (SYNGENTA CROP PROTECTION AG, priority 2021, published 2025):
Some results were stated once for a whole list of compounds, not compound by compound.

Tests used:
Type in all cases: cell-based
Settings in all cases: 20 ppm, photometrically after 3-4 days at 620 nm
[1] = system: Cercospora kikuchii; test: Cercospora kikuchii liquid culture (leaf blight of soybean)
[2] = system: Corynespora cassiicola; test: Corynespora cassiicola liquid culture (target leaf spot of tomato)
[3] = system: Cercospora sojina; test: Cercospora sojina liquid culture (frogeye leaf spot of soybean)

Cn1ncc(C2CN(C(=O)c3cc(-c4ccc(F)cc4F)on3)Cc3ccccc32)c1Cl (stereo not drawn) [Compound P-38, [4-(5-chloro-1-methyl-pyrazol-4-yl)-3,4-dihydro-1H-isoquinolin-2-yl]-[5-(2,4-difluorophenyl)isoxazol-3-yl]methanone]
at least 80%: control of Cercospora kikuchii [1] | control of Corynespora cassiicola [2] | control of Cercospora sojina [3]

Cn1cc(C2(C)CN(C(=O)c3cc(-c4ccc(F)cc4F)on3)Cc3ccccc32)cn1 (stereo not drawn) [Compound P-53, [5-(2,4-difluorophenyl)isoxazol-3-yl]-[4-methyl-4-(1-methylpyrazol-4-yl)-1,3-dihydroisoquinolin-2-yl]methanone]
at least 80%: control of Cercospora kikuchii [1] | control of Corynespora cassiicola [2] | control of Cercospora sojina [3]

Cc1c(C2CN(C(=O)c3nnc(-c4ccc(F)cc4F)s3)Cc3ccccc32)cnn1C (stereo not drawn) [Compound P-65, [5-(2,4-difluorophenyl)-1,3,4-thiadiazol-2-yl]-[4-(1,5-dimethylpyrazol-4-yl)-3,4-dihydro-1H-isoquinolin-2-yl]methanone]
at least 80%: control of Cercospora kikuchii [1] | control of Corynespora cassiicola [2] | control of Cercospora sojina [3]

Cc1c(C2CN(C(=O)c3cc(-c4ccc(F)cc4F)on3)Cc3ccccc32)cnn1C (stereo not drawn) [Compound P-140, [5-(2,4-difluorophenyl)isoxazol-3-yl]-[4-(1,5-dimethylpyrazol-4-yl)-3,4-dihydro-1H-isoquinolin-2-yl]methanone]
at least 80%: control of Cercospora kikuchii [1] | control of Corynespora cassiicola [2] | control of Cercospora sojina [3]

Cn1cc(C2CN(C(=O)c3cc(-c4ccc(F)cc4F)on3)Cc3ccccc32)cn1 (stereo not drawn) [Compound P-180, [5-(2,4-difluorophenyl)isoxazol-3-yl]-[4-(1-methylpyrazol-4-yl)-3,4-dihydro-1H-isoquinolin-2-yl]methanone]
at least 80%: control of Cercospora kikuchii [1] | control of Corynespora cassiicola [2] | control of Cercospora sojina [3]
